Source: patent US20260151375A1, “CDK2 INHIBITORS AND METHODS OF USING THE SAME” (Cedilla Therapeutics, Inc., priority 2022, published 2026)
The structures given here were assigned with low confidence; some may be wrong.

Key:
Kuramochi cells = experiment: IncuCyte Kuramochi Assay (cell proliferation); settings: read-out: IncuCyte - Kuramochi RB-WT: IC50; Kuramochi cells labeled with mApple-H2B, 72 hours, cell count
Description: IncuCyte® assay was used to measure the effect of disclosed compounds on cell proliferation. Fluorescent microscopy images of cells were taken immediately after compound treatment and 72 hours later. Image analysis software was used to obtain cell counts as a function of compound concentration. Kuramochi cells labeled with mApple-H2B were seeded on 384-well assay-ready plates. Plates were placed in an IncuCyte® (Sartorius) and scanned at 0 and 72 hours. IncuCyte® software was used to count the number of fluorescent nuclei in each well. The fold change in cell count from 0 to 72 hours in wells treated with increasing compounds concentrations (10 pts, ½ log dilution, 20 μM top concentration) was normalized to DMSO control wells. The normalized cell counts were fit with dose response curves and a […] was calculated.

CDK2/Cyclin E1 = CDK2/Cyclin E1 (Homo sapiens, UniProt P24941); experiment: Caliper Assay (LabChip EZ Reader mobility shift assay), inhibition of CDK2/Cyclin E1 activity; settings: read-out: Caliper Assay (CDK2/CCNE1): IC50; 2.5 nM CDK2/Cyclin E1(14-475), 100 μM ATP, 30 min preincubation
Description: Inhibition of CDK2/Cyclin E1 activity in the presence of compounds of the present disclosure was evaluated using a Caliper LabChip® EZ Reader mobility shift assay. In the assay, activated CDK2/Cyclin E1 catalyzes the phosphorylation of a fluorescently tagged peptide 5-FAM-QSPKKG-CONH2 (PerkinElmer, FL Peptide 18) which induces a difference in capillary electrophoresis mobility. The peptide substrate and product were measured, and the conversion ratio was used to determine the inhibition (as % activity and IC50 values) of CDK2/Cyclin E1. Reactions contained 50 mM HEPES pH 7.5, 10 mM MgCl2, 1 mM EDTA, 2 mM DTT, 0.01% Brij35, 0.5 mg/mL BSA, 0.1% DMSO, 2.5 nM CDK2/Cyclin E1(14-475), 100 μM ATP, and 1.5 μM fluorescent peptide substrate.
Dose titrations of inhibitors in 100% DMSO were combined with 3.25 nM CDK2/Cyclin E1(14-475) and 130 μM of ATP in reaction buffer. The mixtures were incubated for 30 minutes before the addition of fluorescent peptide substrate to initiate the kinase reaction. The final conditions were 2.5 nM CDK2/Cyclin E1(14-475), 100 μM ATP, and 1.5 μM fluorescent peptide. The reactions were stopped after 100 minutes with the addition of EDTA (6 mM final EDTA concentration). The stopped reactions were analyzed on a Caliper LabChip© EZ Reader II. […]

IC50 (CDK2/Cyclin E1): 0.01 to 0.1 µM
SMILES: CC(c1csc(C2CCCC2)n1)c1nc(C2CN(C(=O)c3cncs3)CC23CN(C(=O)[C@H]2CC2(C)C)C3)no1 (some centres unmarked)
IC50 (Kuramochi cells): 5 to 10 µM
